Assay results published in the supplement of paper PMC10735217.
Structures can show the parent of a compound that is named as a salt. This is one part of the list. Single values are uncertain here, since repeats match poorly.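 In a drug-repurposing library screen, luminescence reads luciferase driven by eight TEAD-binding elements, stably integrated into human kidney-derived cells. Compounds scoring over five robust Z scores above the plate mean are called hits.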

Test system: HEK293A TEAD-LUC reporter
Experiment: TEAD-luciferase reporter activity (YAP activation), robust Z score vs plate; higher = stronger YAP/TEAD activation
Settings: 24 h

SMILES	TEAD-luciferase reporter activity (compound concentration: 200 nM)	TEAD-luciferase reporter activity (compound concentration: 2 uM)	TEAD-luciferase reporter activity (compound concentration: 10 uM)
CC(C)c1nc(-c2ccccc2)cc(-c2ccc(F)cc2)c1/C=C/[C@@H]1C[C@@H](O)CC(=O)O1	inactive: -0.4	inactive: -1.58	inactive: -2.09
CC(C)CCC(=O)CC1c2ccccc2C(=O)N1c1ccc2ccc(Cl)nc2n1 (stereo not drawn) [pagoclone]	inactive: 1.55	inactive: -0.0176	inactive: -0.405
COc1cc(NS(=O)(=O)c2ccc(N)cc2)nc(C)n1	inactive: 1.34	inactive: -0.677	inactive: -0.83
CN(C/C=C(/c1ccc(-c2ccco2)cc1)c1ccsc1)CC(=O)O	inactive: -0.0454	inactive: -0.134	inactive: 2.78
N=C(N)N1CCc2ccccc2C1 [Debrisoquine sulfate]	inactive: -0.494	inactive: 0.873	inactive: -1.54
CC(C(=O)O)c1ccc(N2Cc3ccccc3C2=O)cc1 (stereo not drawn) [indoprofen]	–	inactive: -2.03	–
CC(C(=O)O)c1ccc(N2Cc3ccccc3C2=O)cc1 (stereo not drawn) [Indoprofen]	inactive: 1.47	–	inactive: -0.109
Cc1[nH]c(=O)c(C#N)cc1-c1ccccc1	inactive: 0.751	inactive: 1.54	inactive: 1.83
CCc1ccccc1NC(=O)c1ccc[nH]c1=O	inactive: -1.3	inactive: 1.91	inactive: 0.535
O=C1OC(c2ccc(O)cc2)(c2ccc(O)cc2)c2ccccc21	inactive: -2.12	inactive: -1.65	inactive: 2.27
O=C(O)c1c2c(nc3ccc(F)cc13)-c1ccc(-c3ccccc3F)cc1CCC2	inactive: -0.734	inactive: -0.947	inactive: -0.601
O=C([O-])CC/C=C\CC[C@H]1[C@@H](OCc2ccc(-c3ccccc3)cc2)CC(=O)[C@@H]1N1CCOCC1	inactive: -1.07	inactive: -0.818	inactive: 0.7
COC(=O)[C@@H](Cc1cnc[nH]1)NC(=O)[C@@H](Cc1ccccc1)NC(=O)[C@@H](Cc1ccccc1)NC(C)=O [Triletide]	inactive: -1.5	inactive: 0.525	inactive: 0.477
NCCCC[C@@H]1NC(=O)[C@H](CCC(=O)O)NC(=O)c2cc([N+](=O)[O-])ccc2OCC[C@@H](C(=O)NCC(=O)O)NC1=O [Tavilermide]	inactive: -1.18	inactive: -0.306	inactive: -0.556
Cc1cc(C)cc(-c2ccc(CN3CCCC3C(=O)N3CCCC(C)C3)cc2)c1 (stereo not drawn)	inactive: -1.95	–	inactive: 1.69
CCCCOc1ccc(OCC(O)CNCCNc2cc(=O)n(C)c(=O)n2C)cc1 (stereo not drawn)	inactive: -0.389	inactive: -1.94	inactive: -0.234
CCC(=O)C1c2cccc(O)c2C(=O)c2c(O)cccc21	inactive: -0.734	inactive: -0.253	inactive: 4.38
CC1CCCN(CC(C)NC(=O)c2n[nH]c3ccccc23)C1 (stereo not drawn)	inactive: -1.14	inactive: -1.95	inactive: 4.98
Cc1cccc(NS(=O)(=O)c2ccc(Cl)c(C(=O)N3CCN(CCN4CCCC4)CC3)c2)c1	inactive: 2.36	inactive: -1.91	inactive: 0.825
CCCc1nc2c(n1Cc1ccc(-c3ccccc3-c3nnn[nH]3)cc1)C(=O)CCCC2	inactive: -0.785	inactive: 0.582	inactive: 0.312
COc1ccc(C2CC(c3ccncc3)C(C)(C)N2)cc1 (stereo not drawn)	inactive: -0.795	inactive: -0.0151	inactive: 2.59
O=C(NCC1CC1)c1ccc2nccn2c1	inactive: 0.286	–	inactive: -1.76
NCCNc1nonc1/C(=N/O)Nc1ccc(F)c(Br)c1	inactive: 0.0111	inactive: -1.72	inactive: -0.531
O=C([O-])CC(O)(C(=O)[O-])C(O)C(=O)[O-] (stereo not drawn) [Garcinia acid]	inactive: -1.09	inactive: 1.37	inactive: -1.54
CN(C(=O)CO)c1c(I)c(C(=O)NCC(O)CO)c(I)c(C(=O)NCC(O)CO)c1I (stereo not drawn) [iomeprol]	inactive: 0.161	inactive: 0.736	inactive: -0.826
CCNC(=O)[C@H]1C[C@@](F)(c2ccc(CN3CCCC3)c(F)c2)C1	inactive: -0.0263	inactive: -1.23	inactive: 2.41
CC(=O)[C@@]1(C)CC[C@H]2[C@@H]3C=C(C)C4=CC(=O)CC[C@]4(C)[C@H]3CC[C@@]21C	inactive: 1.19	inactive: 1.94	inactive: 2.3
CCCC(=O)O[C@]1(C(=O)COC(C)=O)CC[C@H]2[C@@H]3C[C@H](F)C4=CC(=O)C=C[C@]4(C)[C@@]3(F)[C@@H](O)C[C@@]21C [difluprednate]	inactive: -1.44	inactive: 3.03	inactive: 1.9

SMILES	TEAD-luciferase reporter activity (compound concentration: 200 nM)	TEAD-luciferase reporter activity (compound concentration: 2 uM)	TEAD-luciferase reporter activity (compound concentration: 10 uM)
CC(C)(CC1Cc2ccccc2C1)NC[C@@H](O)COc1cc(CCC(=O)O)cc(F)c1F [ronacaleret hydrochloride]	inactive: 0.124	inactive: -0.417	inactive: 0.161
COc1ccccc1-c1nc(Nc2ccccc2)cn1-c1ccccc1OC	inactive: 1.09	inactive: -0.589	inactive: 1.01
C[C@]12C=CC(=O)N[C@@H]1CC[C@@H]1[C@@H]2CC[C@]2(C)[C@@H](C(=O)Nc3cc(C(F)(F)F)ccc3C(F)(F)F)CC[C@@H]12 [dutasteride]	inactive: -1.64	inactive: 2.78	inactive: 3.07
CCOC(=O)C(CCCC1Cc2ccccc2O1)N[C@@H](C)C(=O)N1CCC[C@H]1C(=O)O (stereo partly drawn)	inactive: -0.1	inactive: 0.614	inactive: 0.2
N[C@@H](CC(=O)NO)C(=O)O	inactive: -0.591	–	inactive: 1.69
COc1cc(O)c(CC=C(C)C)c(O)c1C(=O)/C=C/c1ccc(O)cc1 [Xanthohumol]	inactive: -1.34	inactive: 0.508	inactive: -0.983
O=C(O)c1ccccc1C(=O)Nc1ccc(S(=O)(=O)Nc2nccs2)cc1	active: 8.42	inactive: -1.07	inactive: 0.191
[Cl][Mg][Cl] [Magnesium Chloride]	inactive: -1.44	inactive: -0.896	inactive: 2
CNC(=O)C1CCCN(c2nc3ncccc3o2)C1 (stereo not drawn)	inactive: -0.629	–	inactive: 2.11
COc1ccc2c(C3COC(CCCNC(=O)OCC(N)=O)OC3)cccc2c1 (stereo not drawn)	inactive: -1.59	inactive: -0.0532	inactive: -1.02
Cc1cc(NC(=O)CNC(c2ccccc2)c2ccccc2)n(-c2ccccc2)n1	inactive: -0.165	inactive: -0.709	inactive: 0.776
CC(C)N(Cc1ccccc1)C(=O)CN1C(=O)[C@@H](Cc2c[nH]c3ccccc23)c2nnc(-c3ccccc3)n2-c2ccccc21	inactive: -0.543	inactive: -0.264	inactive: 3.22
C[C@H](CCC(=O)O)[C@H]1CC[C@H]2[C@@H]3[C@H](O)C[C@@H]4C[C@H](O)CC[C@]4(C)[C@H]3C[C@H](O)[C@]12C	inactive: -0.454	inactive: -0.928	inactive: -0.0733
CC(=O)NC[C@H]1CN(c2ccc(-c3cncs3)c(F)c2)C(=O)O1	inactive: 0.2	inactive: -0.623	inactive: -0.188
Cc1nn2c(c1-c1ccccc1)NC1=CCCC1=C2NCC(C)C	inactive: 0.437	inactive: -1.9	inactive: 0.333
COc1ccc(Oc2cc(NCCC(F)(F)F)c3ncc(-c4ccc(C(=O)NC5CC5)c(C)c4)n3n2)c(F)c1F	inactive: -0.755	inactive: -1.59	inactive: -0.327
CCCn1c(NC(=O)C2CCCN(c3cnccn3)C2)nc2ccccc21 (stereo not drawn)	inactive: -0.356	inactive: -0.215	inactive: -0.237
CC1(C)CC=C(c2ccccc2)c2cc(C#Cc3ccc(C(=O)O)cc3)ccc21	inactive: -0.566	inactive: 0.67	inactive: 0.0739
CCOC(=O)C1=C(C)NC(C)=C(C(=O)OCCNC(=O)c2cccnc2)C1c1cccc([N+](=O)[O-])c1 (stereo not drawn)	inactive: -1.31	inactive: -1.74	inactive: 1.84
COc1ccnc2[nH]cc(C(=O)C(=O)N3CCN(C(=O)c4ccccc4)C[C@H]3C)c12	inactive: 0.761	inactive: 1.26	inactive: 0.245
O=C(O)CSC(CCCc1ccccc1)c1ccc(OCc2ccc3ccccc3n2)cc1 (stereo not drawn)	inactive: -0.984	inactive: -1.13	active: 8.04
COc1cc(Cc2cnc(N)nc2N)c2cc(Cc3c(C(=O)N(C)C)[nH]c4ccc(Cl)cc34)oc2c1OC	inactive: 1.31	inactive: -0.229	inactive: -1.87
Cc1nc(-c2ccc(C(F)(F)F)cc2)sc1COc1ccc(C(=O)O)c(Cl)c1	inactive: -1.68	inactive: -0.936	inactive: -0.713
CN(Cc1ccc2ccccc2n1)C[C@H](O)COc1ccc(NS(C)(=O)=O)cc1	inactive: 1.22	inactive: 0.749	inactive: 0.955
CN1CCCC(n2nc(Cc3ccc(Cl)cc3)c3ccccc3c2=O)CC1 (stereo not drawn) [azelastine hydrochloride]	inactive: -0.35	inactive: -0.828	inactive: 1.39
CCCCCCCOc1ccc(CCC(N)(CO)CO)cc1C(F)(F)F	inactive: 1.73	inactive: -1.14	inactive: -0.839
CCCCC[C@@](C)(O)/C=C/[C@H]1[C@H](O)CC(=O)[C@@H]1C/C=C\CCCC(=O)O [Arbaprostil]	inactive: 0.0601	inactive: -1.07	inactive: -0.881

Random excerpt: 2 entries already listed.
SMILES	TEAD-luciferase reporter activity (compound concentration: 200 nM)	TEAD-luciferase reporter activity (compound concentration: 2 uM)	TEAD-luciferase reporter activity (compound concentration: 10 uM)
CCCn1c(NC(=O)C2CCCN(c3cnccn3)C2)nc2ccccc21 (stereo not drawn)	inactive: -0.356	inactive: -0.215	inactive: -0.237
Cc1nc(-c2ccc(C(F)(F)F)cc2)sc1COc1ccc(C(=O)O)c(Cl)c1	inactive: -1.68	inactive: -0.936	inactive: -0.713
